Assay results taken from the supplement of paper PMC12067093, “Discovery and optimisation of a covalent ligand for TRIM25 and its application to targeted protein ubiquitination” (Chemical Science, 2025).
Some of the results follow.

Amino acid sequences for entries named in this document (tags omitted). A change or cut given only in a name is not applied to a line headed by its entry.
UniProt Q9HAV4: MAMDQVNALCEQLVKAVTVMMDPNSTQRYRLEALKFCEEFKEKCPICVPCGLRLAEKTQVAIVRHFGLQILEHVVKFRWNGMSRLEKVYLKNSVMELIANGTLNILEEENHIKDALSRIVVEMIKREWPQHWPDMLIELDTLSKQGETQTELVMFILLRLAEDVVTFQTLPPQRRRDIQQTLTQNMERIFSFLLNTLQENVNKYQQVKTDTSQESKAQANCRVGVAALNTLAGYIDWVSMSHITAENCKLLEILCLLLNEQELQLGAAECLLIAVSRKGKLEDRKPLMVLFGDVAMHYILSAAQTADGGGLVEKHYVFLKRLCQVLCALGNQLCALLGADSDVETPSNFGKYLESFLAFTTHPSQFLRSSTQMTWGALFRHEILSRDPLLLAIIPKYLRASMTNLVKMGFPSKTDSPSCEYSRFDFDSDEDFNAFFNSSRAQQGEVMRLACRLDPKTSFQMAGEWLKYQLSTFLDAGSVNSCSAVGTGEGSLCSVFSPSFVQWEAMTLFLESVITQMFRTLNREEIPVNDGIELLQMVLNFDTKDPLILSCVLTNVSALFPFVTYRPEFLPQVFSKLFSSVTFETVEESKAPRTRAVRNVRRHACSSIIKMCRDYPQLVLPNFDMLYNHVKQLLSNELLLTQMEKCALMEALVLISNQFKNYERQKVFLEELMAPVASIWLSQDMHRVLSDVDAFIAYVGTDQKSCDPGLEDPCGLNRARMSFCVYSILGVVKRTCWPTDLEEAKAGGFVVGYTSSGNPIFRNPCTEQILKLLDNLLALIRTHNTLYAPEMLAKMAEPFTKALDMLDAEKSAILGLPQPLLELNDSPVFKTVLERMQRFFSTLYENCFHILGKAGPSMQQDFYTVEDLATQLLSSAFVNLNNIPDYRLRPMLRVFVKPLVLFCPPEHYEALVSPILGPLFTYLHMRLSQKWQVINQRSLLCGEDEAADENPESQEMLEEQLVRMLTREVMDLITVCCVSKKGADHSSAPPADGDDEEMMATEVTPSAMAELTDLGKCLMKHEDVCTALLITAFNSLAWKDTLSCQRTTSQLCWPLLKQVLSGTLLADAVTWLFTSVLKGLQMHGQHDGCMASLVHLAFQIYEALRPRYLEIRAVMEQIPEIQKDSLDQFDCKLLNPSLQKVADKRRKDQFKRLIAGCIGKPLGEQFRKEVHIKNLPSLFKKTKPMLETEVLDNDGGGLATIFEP
UniProt Q86WB0: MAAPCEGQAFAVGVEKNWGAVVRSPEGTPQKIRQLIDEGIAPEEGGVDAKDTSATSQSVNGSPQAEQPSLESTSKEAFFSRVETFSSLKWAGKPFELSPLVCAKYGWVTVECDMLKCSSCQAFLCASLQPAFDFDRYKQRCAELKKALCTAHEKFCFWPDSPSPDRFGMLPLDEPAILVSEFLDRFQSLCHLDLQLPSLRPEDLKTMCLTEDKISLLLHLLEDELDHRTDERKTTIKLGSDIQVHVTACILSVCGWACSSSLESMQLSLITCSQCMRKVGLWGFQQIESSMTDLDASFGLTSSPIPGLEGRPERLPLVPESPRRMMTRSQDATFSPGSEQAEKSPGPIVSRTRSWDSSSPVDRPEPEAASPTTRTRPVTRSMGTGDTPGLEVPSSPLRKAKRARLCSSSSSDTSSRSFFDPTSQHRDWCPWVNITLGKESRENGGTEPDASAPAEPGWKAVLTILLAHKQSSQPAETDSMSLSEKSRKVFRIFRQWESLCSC
UniProt Q96H79: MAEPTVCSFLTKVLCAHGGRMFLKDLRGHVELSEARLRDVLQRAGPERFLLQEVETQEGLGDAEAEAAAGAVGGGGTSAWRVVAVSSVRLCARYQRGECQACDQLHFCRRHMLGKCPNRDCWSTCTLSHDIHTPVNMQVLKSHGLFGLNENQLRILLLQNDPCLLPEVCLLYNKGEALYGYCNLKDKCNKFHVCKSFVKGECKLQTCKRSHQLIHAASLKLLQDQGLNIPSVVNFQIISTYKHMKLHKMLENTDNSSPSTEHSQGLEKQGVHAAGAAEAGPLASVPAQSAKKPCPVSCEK
UniProt Q9H0D6: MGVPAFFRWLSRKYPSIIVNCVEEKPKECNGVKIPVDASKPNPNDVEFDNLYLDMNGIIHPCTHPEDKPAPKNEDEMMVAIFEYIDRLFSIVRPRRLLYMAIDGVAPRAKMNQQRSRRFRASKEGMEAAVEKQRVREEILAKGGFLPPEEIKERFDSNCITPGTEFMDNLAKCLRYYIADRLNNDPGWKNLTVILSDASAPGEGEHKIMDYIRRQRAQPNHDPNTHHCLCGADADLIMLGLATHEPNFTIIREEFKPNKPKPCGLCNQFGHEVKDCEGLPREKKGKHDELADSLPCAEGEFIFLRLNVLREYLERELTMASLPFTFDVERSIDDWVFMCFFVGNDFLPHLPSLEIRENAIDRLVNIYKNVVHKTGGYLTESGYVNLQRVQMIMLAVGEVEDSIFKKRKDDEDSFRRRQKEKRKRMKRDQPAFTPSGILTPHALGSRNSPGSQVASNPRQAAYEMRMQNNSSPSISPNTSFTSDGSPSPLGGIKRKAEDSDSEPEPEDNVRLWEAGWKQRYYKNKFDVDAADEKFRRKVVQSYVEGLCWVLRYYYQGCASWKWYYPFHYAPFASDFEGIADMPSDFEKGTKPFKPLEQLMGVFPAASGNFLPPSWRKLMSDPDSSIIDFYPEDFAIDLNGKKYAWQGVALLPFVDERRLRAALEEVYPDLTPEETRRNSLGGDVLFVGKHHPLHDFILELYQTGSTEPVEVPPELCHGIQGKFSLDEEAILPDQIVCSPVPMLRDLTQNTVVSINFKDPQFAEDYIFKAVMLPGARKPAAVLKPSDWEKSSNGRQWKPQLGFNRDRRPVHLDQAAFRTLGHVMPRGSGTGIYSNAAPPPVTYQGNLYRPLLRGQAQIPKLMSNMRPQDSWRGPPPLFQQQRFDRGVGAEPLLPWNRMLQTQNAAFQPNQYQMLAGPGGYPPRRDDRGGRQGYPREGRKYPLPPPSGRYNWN
UniProt Q6PJT7: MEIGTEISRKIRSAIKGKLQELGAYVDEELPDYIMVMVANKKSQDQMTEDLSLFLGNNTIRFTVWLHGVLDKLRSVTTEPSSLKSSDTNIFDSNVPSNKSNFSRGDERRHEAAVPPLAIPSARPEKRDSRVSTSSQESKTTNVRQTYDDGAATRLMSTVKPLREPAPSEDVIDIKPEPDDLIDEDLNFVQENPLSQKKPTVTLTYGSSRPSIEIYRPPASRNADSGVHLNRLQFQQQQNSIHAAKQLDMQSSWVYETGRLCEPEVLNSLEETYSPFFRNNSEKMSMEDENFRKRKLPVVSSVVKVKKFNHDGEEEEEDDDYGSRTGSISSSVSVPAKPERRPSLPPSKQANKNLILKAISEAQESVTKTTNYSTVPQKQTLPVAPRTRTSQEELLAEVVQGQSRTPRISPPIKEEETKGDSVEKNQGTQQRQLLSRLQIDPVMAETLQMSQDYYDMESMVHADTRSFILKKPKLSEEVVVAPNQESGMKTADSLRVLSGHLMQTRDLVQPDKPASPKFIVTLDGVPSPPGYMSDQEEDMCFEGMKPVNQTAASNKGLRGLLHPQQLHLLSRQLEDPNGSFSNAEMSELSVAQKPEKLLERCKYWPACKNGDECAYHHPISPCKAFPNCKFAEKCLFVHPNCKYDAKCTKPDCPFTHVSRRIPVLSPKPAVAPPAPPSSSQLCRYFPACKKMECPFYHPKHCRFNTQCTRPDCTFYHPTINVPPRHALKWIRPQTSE
UniProt P27348: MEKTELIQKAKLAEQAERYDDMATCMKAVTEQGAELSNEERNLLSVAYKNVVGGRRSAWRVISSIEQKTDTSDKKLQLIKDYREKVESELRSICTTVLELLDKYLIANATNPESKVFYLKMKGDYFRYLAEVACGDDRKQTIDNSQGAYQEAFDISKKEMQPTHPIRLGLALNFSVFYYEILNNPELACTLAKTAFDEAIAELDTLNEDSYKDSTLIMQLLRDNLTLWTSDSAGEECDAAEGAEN
UniProt Q7Z2W4: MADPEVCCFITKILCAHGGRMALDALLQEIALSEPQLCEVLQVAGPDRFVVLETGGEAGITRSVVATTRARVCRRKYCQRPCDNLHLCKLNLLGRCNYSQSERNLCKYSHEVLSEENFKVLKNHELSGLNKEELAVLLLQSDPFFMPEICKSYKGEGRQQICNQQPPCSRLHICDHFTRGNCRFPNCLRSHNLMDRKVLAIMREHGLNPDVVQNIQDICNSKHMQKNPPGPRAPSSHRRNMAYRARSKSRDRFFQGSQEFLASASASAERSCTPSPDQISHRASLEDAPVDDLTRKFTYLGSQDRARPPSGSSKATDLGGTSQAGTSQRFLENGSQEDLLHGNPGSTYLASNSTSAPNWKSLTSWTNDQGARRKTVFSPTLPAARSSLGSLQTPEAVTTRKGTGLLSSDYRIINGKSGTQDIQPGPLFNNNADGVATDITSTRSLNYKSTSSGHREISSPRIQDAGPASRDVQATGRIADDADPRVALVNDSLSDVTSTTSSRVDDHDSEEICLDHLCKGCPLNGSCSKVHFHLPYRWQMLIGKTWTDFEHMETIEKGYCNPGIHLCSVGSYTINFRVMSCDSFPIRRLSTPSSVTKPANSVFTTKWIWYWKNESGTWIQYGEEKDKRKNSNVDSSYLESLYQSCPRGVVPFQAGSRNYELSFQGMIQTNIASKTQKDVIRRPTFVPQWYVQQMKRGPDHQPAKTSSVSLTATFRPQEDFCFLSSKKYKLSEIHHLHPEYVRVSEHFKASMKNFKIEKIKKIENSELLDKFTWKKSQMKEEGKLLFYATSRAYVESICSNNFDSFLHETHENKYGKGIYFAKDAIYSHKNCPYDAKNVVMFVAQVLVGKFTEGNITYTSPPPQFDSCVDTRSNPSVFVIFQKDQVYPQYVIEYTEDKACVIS
UniProt Q8IZH2: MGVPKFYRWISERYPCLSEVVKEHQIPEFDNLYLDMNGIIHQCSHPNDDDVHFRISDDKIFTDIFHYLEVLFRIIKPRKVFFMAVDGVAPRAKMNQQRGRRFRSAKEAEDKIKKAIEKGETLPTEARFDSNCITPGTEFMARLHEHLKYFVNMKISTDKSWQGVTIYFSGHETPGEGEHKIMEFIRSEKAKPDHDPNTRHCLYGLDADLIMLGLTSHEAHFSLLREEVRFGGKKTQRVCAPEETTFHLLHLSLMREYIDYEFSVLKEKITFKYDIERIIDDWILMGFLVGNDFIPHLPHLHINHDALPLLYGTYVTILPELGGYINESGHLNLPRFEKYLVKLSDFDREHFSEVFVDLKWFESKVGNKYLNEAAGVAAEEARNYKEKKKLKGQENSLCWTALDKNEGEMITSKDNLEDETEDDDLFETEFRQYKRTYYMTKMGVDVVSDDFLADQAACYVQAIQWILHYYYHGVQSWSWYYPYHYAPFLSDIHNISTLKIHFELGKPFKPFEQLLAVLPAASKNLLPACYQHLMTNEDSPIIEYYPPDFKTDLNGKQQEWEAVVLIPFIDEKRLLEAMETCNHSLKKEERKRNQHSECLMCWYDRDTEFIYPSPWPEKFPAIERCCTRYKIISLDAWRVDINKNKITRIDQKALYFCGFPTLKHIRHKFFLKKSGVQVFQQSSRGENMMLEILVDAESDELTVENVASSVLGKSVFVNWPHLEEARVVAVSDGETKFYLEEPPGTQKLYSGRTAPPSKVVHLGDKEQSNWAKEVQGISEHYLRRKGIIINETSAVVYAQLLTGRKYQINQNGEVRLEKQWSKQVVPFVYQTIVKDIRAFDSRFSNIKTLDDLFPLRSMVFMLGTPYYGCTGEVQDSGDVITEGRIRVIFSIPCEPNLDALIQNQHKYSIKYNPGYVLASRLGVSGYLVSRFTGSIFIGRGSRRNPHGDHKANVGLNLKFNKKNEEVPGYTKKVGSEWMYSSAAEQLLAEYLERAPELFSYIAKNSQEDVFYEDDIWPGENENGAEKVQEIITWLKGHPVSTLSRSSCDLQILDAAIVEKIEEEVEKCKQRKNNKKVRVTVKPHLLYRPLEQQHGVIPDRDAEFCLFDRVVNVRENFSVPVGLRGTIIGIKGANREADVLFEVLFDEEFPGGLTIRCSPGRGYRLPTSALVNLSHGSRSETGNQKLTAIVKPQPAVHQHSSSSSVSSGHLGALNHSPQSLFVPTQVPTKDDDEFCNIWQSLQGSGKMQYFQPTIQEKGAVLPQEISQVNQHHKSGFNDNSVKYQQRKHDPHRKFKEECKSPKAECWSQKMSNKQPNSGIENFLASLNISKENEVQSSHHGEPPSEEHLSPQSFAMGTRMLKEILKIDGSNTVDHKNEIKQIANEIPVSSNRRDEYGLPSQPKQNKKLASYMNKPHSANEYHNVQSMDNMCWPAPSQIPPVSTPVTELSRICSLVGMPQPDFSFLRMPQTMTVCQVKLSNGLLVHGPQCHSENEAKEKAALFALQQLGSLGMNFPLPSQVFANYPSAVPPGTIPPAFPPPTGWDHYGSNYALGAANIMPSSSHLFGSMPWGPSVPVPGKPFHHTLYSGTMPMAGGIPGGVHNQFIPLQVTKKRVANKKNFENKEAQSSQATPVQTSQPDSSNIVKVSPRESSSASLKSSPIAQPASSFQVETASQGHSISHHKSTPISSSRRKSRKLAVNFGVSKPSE

Compound: Cc1cc(ccc1-c1ccccc1)C(=O)N1CCCN(CC1)C(=O)CCl [compound 10]
Assay: probe-labelled cysteine peptide fold change vs DMSO (competition) (log2 fold change); higher = less target engagement (more negative = stronger competition)
Conditions: THP-1, incubation time: 4 h
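Also: competitive profiling in live THP-1 cells: cysteine peptides tagged with an iodoacetamide desthiobiotin (IA-DTB) probe, intensity after compound treatment relative to DMSO-treated cells.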

Target	probe-labelled cysteine peptide fold change (10 µM)	probe-labelled cysteine peptide fold change (50 µM)
XPO5_Q9HAV4_736_TCWPTDLEEAK (UniProt Q9HAV4)	-0.0481	0.117
ZC3HC1_Q86WB0_5_AAPCEGQAFAVGVEK (UniProt Q86WB0)	-0.353	-0.54
ZFAND6_Q6FIF0_181_YSDVHNCSYNYK (UniProt Q6FIF0)	-0.0333	-0.236
ZC3HAV1L_Q96H79_99_GECQACDQLHFCR (UniProt Q96H79)	0.0733	0.152
ZCCHC3_Q9NUD5_356_CGEEGHLSPYCR (UniProt Q9NUD5)	0.312	0.342
ZDHHC6_Q9H6R6_295_EGCHQYSLTIEQLK (UniProt Q9H6R6)	0.0393	0.193
XRN2_Q9H0D6_29_ECNGVK (UniProt Q9H0D6)	-0.154	-0.425
ZC3H14_Q6PJT7_622_NGDECAYHHPISPCK (UniProt Q6PJT7)	0.0775	-0.061
YJU2_Q9BW85_83_CLAEITFK (UniProt Q9BW85)	-0.0359	-0.0845
ZC3H11A_O75152_209_QGECLNFGIK (UniProt O75152)	-0.0872	-0.122
ZCCHC3_Q9NUD5_238_REQEDCWENFVVLGR (UniProt Q9NUD5)	0.132	0.283
YWHAQ_P27348_25_YDDMATCMK (UniProt P27348)	-0.185	-0.108
YBEY_P58557_41_FDLGIICVDNK (UniProt P58557)	-0.294	-0.279
ZC3H4_Q9UPT8_448_AENCPYMHGDFPCK (UniProt Q9UPT8)	0.143	-0.0513
ZFAND1_Q8TCF1_217_LCHITSGEALPLDHTLETWIAK (UniProt Q8TCF1)	0.0314	-0.335
ZBTB7A_O95365_34_TQGLLCDVVILVEGR (UniProt O95365)	0.138	0.193
XPO4_Q9C0E2_723_ANLVIQCENWWNLAK (UniProt Q9C0E2)	0.102	-0.0501
ZC3H14_Q6PJT7_641_CLFVHPNCK (UniProt Q6PJT7)	0.151	-0.0994
ZBTB2_Q8N680_296_VPLTLCSNAADLGK (UniProt Q8N680)	0.00267	-0.193
ZC3HAV1_Q7Z2W4_567_GYCNPGIHLCSVGSYTINFR (UniProt Q7Z2W4)	0.175	0.426

Target	probe-labelled cysteine peptide fold change (10 µM)	probe-labelled cysteine peptide fold change (50 µM)
XRN2_Q9H0D6_736_FSLDEEAILPDQIVCSPVPMLR (UniProt Q9H0D6)	0.25	0.374
ZC3HAV1_Q7Z2W4_272_SCTPSPDQISHR (UniProt Q7Z2W4)	-0.00132	0.109
XRN1_Q8IZH2_1104_PHLLYRPLEQQHGVIPDRDAEFCLFDR (UniProt Q8IZH2)	-0.0272	0.168
YME1L1_Q96TA2_433_ANAPCVIFIDELDSVGGK (UniProt Q96TA2)	0.0564	0.26
ZC3HAV1_Q7Z2W4_7+8_ADPEVCCFITK (UniProt Q7Z2W4)	0.00723	-0.751
XRN1_Q8IZH2_1104_PLEQQHGVIPDRDAEFCLFDR (UniProt Q8IZH2)	0.195	-0.0163
XRCC1_P18887_389_EWVLDCHR (UniProt P18887)	-0.0723	0.107
ZFAND3_Q9H8U3_181_CGYVFCMLHR (UniProt Q9H8U3)	-0.278	-0.353
ZC3HC1_Q86WB0_406_LCSSSSSDTSSR (UniProt Q86WB0)	-0.246	-0.86
ZC3H4_Q9UPT8_433_FYITGFCAR (UniProt Q9UPT8)	0.111	0.0102
YWHAZ_P63104_25_LAEQAERYDDMAACMK (UniProt P63104)	-0.163	-0.821
ZC3H14_Q6PJT7_647+652_CTKPDCPFTHVSR (UniProt Q6PJT7)	0.172	-0.263
ZC3H13_Q5T200_1666_LSQSSIQQELCVS (UniProt Q5T200)	-0.178	0.201
XPO5_Q9HAV4_1025_HEDVCTALLITAFNSLAWK (UniProt Q9HAV4)	0.149	0.00519
XRN1_Q8IZH2_657_ALYFCGFPTLK (UniProt Q8IZH2)	-0.16	0.169
YDJC_A8MPS7_294_AQLAQDGVQLCALDDLDSK (UniProt A8MPS7)	-0.515	0.0842
ZC3HAV1L_Q96H79_169_ILLLQNDPCLLPEVCLLYNK (UniProt Q96H79)	0.312	0.251
YWHAQ_P27348_134_YLAEVACGDDRK (UniProt P27348)	-0.0719	0.0248
XRN2_Q9H0D6_266_PCGLCNQFGHEVK (UniProt Q9H0D6)	0.0877	0.168

Three entries picked at random from the list so far, as already listed:
Target	probe-labelled cysteine peptide fold change (10 µM)	probe-labelled cysteine peptide fold change (50 µM)
XRN1_Q8IZH2_1104_PHLLYRPLEQQHGVIPDRDAEFCLFDR (UniProt Q8IZH2)	-0.0272	0.168
XRN2_Q9H0D6_266_PCGLCNQFGHEVK (UniProt Q9H0D6)	0.0877	0.168
YWHAQ_P27348_134_YLAEVACGDDRK (UniProt P27348)	-0.0719	0.0248
